The list shows a part of the results. Most entries show no effect beyond the scatter of the controls.

The chains behind the UniProt entries cited, without tags or fusion partners. Where a name states a change or a piece, a line headed by the entry shows the natural chain unless it says otherwise.
UniProt Q9DD18: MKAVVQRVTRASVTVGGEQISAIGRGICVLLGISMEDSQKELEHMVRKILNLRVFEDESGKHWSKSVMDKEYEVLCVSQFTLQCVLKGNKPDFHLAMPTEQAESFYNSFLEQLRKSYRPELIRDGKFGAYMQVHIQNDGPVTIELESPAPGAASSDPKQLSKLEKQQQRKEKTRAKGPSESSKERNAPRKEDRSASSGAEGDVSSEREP
UniProt Q9EPU0: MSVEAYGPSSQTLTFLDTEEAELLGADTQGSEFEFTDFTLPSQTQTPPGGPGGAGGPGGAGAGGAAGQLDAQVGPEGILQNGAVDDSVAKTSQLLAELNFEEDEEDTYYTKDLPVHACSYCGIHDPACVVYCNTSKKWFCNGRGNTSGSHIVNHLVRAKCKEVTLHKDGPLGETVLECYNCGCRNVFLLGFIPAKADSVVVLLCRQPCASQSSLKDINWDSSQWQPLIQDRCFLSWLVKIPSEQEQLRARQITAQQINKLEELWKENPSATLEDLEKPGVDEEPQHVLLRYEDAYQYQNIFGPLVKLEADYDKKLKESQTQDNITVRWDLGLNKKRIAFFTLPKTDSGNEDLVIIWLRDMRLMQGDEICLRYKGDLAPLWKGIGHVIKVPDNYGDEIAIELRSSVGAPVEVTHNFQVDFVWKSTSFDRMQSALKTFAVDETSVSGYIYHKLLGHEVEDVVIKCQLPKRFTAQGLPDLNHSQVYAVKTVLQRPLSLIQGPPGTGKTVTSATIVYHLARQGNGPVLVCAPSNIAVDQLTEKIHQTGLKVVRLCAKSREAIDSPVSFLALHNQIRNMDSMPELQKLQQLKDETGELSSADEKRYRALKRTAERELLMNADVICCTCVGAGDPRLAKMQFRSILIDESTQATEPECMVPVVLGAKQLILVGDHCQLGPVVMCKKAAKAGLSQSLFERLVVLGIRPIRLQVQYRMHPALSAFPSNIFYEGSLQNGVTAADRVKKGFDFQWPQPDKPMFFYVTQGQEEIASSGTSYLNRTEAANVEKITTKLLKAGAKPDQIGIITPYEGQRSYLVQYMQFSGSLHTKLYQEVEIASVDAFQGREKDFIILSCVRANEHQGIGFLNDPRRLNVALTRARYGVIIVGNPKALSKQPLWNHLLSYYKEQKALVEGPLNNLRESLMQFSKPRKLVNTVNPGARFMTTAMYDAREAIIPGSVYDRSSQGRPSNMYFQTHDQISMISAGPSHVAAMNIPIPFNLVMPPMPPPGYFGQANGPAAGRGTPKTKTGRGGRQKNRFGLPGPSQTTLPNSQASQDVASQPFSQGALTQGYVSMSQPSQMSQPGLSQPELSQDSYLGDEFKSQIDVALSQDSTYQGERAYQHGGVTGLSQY
UniProt Q9JLJ4: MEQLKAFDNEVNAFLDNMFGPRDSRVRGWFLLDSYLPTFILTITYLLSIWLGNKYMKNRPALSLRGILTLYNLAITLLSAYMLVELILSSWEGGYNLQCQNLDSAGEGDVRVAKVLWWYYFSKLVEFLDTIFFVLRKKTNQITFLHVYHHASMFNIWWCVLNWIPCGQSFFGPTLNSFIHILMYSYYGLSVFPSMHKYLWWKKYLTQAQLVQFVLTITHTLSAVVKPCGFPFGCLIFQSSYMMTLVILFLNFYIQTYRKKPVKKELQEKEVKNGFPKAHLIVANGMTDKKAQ
UniProt Q9JKF1, whole entry: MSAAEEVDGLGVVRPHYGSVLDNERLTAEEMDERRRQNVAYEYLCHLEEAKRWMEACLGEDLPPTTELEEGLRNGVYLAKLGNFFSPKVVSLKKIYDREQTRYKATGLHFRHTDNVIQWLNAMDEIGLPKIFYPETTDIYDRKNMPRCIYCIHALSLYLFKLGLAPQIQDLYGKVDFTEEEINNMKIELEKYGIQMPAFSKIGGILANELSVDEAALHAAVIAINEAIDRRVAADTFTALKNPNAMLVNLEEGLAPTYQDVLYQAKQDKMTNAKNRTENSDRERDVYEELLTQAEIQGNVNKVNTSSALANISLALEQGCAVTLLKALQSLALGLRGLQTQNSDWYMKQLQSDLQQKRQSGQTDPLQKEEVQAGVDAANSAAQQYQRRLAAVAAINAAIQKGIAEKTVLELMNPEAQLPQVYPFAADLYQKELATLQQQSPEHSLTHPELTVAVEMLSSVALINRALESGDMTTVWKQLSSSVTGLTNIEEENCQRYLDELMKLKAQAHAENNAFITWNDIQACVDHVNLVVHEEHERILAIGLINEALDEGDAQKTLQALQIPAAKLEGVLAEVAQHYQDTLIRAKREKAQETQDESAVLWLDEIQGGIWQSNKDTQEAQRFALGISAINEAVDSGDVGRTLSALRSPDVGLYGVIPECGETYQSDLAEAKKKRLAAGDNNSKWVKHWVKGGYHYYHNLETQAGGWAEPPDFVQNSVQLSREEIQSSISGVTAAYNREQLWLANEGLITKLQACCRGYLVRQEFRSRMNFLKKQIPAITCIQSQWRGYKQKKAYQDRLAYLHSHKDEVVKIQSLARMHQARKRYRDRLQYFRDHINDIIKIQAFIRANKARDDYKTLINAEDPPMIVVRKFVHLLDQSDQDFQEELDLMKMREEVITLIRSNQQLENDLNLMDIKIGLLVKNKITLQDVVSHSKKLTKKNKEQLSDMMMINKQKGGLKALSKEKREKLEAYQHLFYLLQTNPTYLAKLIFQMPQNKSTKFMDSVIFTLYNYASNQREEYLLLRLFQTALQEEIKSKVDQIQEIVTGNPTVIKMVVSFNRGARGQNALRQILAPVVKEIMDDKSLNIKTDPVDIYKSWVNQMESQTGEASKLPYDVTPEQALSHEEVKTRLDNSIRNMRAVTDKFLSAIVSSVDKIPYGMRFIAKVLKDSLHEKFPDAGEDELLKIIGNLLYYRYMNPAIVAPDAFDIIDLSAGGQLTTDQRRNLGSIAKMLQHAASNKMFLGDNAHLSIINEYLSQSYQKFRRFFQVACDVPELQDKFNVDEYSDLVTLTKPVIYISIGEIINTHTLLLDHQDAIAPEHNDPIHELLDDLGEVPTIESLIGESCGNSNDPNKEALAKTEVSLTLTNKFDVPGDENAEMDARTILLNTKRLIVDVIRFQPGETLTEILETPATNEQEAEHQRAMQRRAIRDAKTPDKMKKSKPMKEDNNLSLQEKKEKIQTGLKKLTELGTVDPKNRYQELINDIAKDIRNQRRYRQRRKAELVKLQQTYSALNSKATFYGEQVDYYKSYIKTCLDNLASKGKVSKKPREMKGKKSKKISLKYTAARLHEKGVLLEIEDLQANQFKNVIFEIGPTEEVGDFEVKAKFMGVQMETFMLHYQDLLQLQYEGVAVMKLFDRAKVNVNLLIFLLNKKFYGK
UniProt Q9JLJ5: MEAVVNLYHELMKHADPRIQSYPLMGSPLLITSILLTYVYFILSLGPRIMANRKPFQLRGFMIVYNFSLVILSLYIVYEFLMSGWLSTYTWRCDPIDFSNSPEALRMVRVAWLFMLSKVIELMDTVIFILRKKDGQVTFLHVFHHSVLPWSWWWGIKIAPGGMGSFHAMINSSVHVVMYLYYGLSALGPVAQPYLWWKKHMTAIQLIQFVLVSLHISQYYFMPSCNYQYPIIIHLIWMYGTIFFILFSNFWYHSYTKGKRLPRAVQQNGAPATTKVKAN
UniProt Q9JJF9: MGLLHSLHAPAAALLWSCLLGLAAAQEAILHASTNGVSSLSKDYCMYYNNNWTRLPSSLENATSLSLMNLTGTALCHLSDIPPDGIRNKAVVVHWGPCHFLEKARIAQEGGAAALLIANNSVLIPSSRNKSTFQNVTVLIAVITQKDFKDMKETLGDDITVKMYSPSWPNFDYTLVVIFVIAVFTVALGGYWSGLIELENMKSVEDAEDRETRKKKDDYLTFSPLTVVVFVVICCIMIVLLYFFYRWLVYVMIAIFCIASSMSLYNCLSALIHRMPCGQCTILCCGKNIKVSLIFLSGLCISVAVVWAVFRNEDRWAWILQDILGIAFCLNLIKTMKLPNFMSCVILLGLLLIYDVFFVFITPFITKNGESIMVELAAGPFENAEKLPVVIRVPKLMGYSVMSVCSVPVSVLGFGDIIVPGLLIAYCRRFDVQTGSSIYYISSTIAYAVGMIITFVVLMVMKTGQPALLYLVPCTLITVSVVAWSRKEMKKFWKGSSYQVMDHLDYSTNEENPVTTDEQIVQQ
UniProt Q9QXC1: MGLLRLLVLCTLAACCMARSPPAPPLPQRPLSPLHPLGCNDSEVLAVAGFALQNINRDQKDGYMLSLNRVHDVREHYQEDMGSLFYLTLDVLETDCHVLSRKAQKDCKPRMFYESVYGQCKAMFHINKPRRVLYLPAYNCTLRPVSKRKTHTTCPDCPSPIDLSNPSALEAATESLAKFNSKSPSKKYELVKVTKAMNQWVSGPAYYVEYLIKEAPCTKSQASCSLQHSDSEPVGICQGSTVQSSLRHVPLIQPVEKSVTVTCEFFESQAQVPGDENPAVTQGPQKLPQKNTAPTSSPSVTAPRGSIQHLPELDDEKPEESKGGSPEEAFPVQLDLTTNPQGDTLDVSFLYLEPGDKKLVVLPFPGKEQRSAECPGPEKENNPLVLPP
UniProt Q9QXZ6: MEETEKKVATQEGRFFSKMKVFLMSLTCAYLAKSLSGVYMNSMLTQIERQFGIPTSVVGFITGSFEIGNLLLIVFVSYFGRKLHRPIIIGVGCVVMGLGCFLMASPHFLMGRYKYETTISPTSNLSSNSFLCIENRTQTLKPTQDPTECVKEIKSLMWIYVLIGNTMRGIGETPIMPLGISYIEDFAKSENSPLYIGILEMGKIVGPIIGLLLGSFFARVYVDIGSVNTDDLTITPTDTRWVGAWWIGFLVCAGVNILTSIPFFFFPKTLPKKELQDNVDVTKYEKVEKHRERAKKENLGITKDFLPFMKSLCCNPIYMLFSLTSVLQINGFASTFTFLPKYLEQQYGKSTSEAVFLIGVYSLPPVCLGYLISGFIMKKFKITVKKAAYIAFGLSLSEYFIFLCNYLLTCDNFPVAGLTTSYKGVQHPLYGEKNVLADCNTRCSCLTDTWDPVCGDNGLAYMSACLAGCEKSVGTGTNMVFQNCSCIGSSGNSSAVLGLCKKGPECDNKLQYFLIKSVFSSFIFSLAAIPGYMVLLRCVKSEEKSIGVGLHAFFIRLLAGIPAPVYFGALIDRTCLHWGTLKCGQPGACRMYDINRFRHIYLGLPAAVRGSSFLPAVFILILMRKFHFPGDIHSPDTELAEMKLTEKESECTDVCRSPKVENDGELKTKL
UniProt Q9EPK6: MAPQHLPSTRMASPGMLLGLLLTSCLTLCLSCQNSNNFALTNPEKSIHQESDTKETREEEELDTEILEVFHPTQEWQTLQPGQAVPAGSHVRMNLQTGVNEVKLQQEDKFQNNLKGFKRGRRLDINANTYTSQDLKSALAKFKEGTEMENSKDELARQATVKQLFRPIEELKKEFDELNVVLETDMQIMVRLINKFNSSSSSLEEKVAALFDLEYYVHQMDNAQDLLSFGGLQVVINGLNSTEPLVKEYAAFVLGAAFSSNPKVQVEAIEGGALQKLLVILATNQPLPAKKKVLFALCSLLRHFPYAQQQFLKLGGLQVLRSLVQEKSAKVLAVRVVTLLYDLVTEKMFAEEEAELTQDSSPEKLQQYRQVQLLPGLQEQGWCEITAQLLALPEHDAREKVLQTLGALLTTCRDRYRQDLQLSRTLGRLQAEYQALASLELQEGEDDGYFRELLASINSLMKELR
UniProt Q9DCD5: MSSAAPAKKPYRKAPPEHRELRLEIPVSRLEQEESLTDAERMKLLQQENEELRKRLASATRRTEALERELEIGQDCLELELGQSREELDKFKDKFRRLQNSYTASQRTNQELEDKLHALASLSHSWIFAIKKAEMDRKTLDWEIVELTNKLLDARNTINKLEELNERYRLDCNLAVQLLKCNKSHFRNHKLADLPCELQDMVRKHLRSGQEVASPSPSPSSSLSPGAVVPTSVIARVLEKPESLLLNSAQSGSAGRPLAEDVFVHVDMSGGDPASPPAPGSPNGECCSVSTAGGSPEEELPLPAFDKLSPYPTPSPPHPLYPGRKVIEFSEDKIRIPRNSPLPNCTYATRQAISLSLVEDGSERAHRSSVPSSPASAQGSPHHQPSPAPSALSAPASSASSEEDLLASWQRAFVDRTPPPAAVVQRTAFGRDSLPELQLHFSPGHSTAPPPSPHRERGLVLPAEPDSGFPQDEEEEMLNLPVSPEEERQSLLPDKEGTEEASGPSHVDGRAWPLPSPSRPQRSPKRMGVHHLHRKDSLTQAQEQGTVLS
UniProt Q9JKP7: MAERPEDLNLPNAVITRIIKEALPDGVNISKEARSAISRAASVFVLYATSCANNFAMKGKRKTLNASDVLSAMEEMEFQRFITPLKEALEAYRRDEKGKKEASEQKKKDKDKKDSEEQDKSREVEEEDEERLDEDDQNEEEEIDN
UniProt Q9DCT2, whole entry: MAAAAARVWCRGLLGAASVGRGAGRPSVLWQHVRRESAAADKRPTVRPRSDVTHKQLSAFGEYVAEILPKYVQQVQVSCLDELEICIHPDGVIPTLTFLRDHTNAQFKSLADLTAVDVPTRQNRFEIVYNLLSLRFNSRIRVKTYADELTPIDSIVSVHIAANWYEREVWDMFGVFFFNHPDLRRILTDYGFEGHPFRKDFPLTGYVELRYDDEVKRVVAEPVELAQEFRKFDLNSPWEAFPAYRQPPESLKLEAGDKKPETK

Compound in this test: CN[C@@H]1C[C@H]2O[C@@](C)([C@@H]1OC)n1c3ccccc3c3c4c(c5c6ccccc6n2c5c31)C(=O)NC4 [staurosporine]
Nature of the test: log2 fold change of pooled soluble protein (PISA), ligand vs vehicle (log2 ratio); higher = more thermally stabilized. The conditions noted are these: ligand concentration: 20 uM; assay format: PISA pool 52.9/55.5/58.6 C.
UniProt Q9EQK5: the “log2 fold change of pooled soluble protein” value (shortened to “log2 fold change”) was -0.0321.

As for UniProt Q9JLJ2, the “log2 fold change” value was 0.119.

Take UniProt Q9JKX6: the “log2 fold change” value was -0.0567.

UniProt Q9DD18: the “log2 fold change” value is 0.36.

Turning to UniProt Q9EPU0, the “log2 fold change” value is -0.0242.

UniProt Q9JLJ4: the “log2 fold change” value was -0.0228.

In the case of UniProt Q9ESE1, the “log2 fold change” value is -0.0453.

Take UniProt Q9QXS1: the “log2 fold change” value amounted to 0.0527.

For UniProt Q9JKF1, the “log2 fold change” value stood at 0.0488.

UniProt Q9DCI9: the “log2 fold change” value was -0.0643.

Consider UniProt Q9DCU9, for which the “log2 fold change” value amounted to 0.0298.

As to UniProt Q9JHU2, the “log2 fold change” value came out at 0.00806.

Consider UniProt Q9JIL4, for which the “log2 fold change” value worked out at 0.00623.

As to UniProt Q9JLJ5, the “log2 fold change” value is -0.225.

For UniProt Q9DCD0, the “log2 fold change” value came to 0.0176.

Take UniProt Q9JJT9: the “log2 fold change” value was -0.0809.

Take UniProt Q9JLQ0: the “log2 fold change” value was found to be 0.0107.

As to UniProt Q9DCT1, the “log2 fold change” value is -0.0818.

On to UniProt Q9JJF9, for which the “log2 fold change” value was -0.0706.

UniProt Q9QXC1: the “log2 fold change” value was -0.0818.

In the case of UniProt Q9QXZ6, the “log2 fold change” value came to 0.0308.

As for UniProt Q9JIF0, the “log2 fold change” value was 0.145.

Turning to UniProt Q9QYE6, the “log2 fold change” value is -0.0826.

As for UniProt Q9JHS4, the “log2 fold change” value is -0.0428.

For UniProt Q9EP75, the “log2 fold change” value was 0.182.

On to UniProt Q9JKS5, for which the “log2 fold change” value is -0.11.

With UniProt Q9EPK6, the “log2 fold change” value is 0.15.

Consider UniProt Q9DCD5, for which the “log2 fold change” value was -0.0757.

Take UniProt Q9ER39: the “log2 fold change” value came out at 0.202.

Turning to UniProt Q9ER72, the “log2 fold change” value was 0.039.

For the target UniProt Q9JKP7, the “log2 fold change” value was -0.0045.

Regarding UniProt Q9JHW2, the “log2 fold change” value is -0.0344.

Turning to UniProt Q9ER69, the “log2 fold change” value is -0.0167.

With UniProt Q9JM52, the “log2 fold change” value is -0.0322.

As to UniProt Q9ER73, the “log2 fold change” value is -0.0667.

UniProt Q9DCT2: the “log2 fold change” value was -0.185.

Regarding UniProt Q9EQU5, the “log2 fold change” value was -0.017.

The record behind these values is the supplement of paper PMC12819154, “High-throughput peptide-centric local stability assay extends protein–ligand identification to membrane proteins, tissues and bacteria” (Nature Structural & Molecular Biology, 2025).
